Assay results as given in article PMC11750923.
Weaker means in comparison with the reference protein, sequence or condition of that experiment. Construct, isoform or probe ends are uncertain for at least one entry. For some of these results: Tags and fusion partners may be left off the protein sequences shown. For some of these results: At least one verdict was read from the data and is not stated in words by the source.

By UniProt entry, the sequences of proteins in these tests, tags left out. Residues count along the entry.
UniProt P01033, 24-207: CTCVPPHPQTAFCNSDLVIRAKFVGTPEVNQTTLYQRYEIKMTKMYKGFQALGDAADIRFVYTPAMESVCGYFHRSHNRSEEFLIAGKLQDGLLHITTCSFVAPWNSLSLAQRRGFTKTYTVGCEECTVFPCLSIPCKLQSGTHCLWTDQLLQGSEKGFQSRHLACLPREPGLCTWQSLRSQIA
UniProt P02771, 19-609: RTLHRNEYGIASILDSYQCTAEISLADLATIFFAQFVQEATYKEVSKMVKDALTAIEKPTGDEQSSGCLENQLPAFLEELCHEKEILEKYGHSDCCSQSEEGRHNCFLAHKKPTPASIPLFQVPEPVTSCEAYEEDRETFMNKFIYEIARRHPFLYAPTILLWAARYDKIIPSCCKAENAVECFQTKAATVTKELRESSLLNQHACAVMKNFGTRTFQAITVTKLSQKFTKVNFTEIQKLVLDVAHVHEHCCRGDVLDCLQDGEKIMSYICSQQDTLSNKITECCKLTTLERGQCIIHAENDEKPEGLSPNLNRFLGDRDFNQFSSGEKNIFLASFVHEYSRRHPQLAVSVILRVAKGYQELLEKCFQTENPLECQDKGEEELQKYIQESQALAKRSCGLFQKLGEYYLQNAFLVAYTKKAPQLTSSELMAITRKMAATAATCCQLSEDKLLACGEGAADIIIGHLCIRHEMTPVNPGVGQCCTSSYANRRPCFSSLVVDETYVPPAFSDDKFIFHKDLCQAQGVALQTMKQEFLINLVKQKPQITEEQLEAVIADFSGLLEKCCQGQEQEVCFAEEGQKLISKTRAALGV
UniProt P02769, 25-607: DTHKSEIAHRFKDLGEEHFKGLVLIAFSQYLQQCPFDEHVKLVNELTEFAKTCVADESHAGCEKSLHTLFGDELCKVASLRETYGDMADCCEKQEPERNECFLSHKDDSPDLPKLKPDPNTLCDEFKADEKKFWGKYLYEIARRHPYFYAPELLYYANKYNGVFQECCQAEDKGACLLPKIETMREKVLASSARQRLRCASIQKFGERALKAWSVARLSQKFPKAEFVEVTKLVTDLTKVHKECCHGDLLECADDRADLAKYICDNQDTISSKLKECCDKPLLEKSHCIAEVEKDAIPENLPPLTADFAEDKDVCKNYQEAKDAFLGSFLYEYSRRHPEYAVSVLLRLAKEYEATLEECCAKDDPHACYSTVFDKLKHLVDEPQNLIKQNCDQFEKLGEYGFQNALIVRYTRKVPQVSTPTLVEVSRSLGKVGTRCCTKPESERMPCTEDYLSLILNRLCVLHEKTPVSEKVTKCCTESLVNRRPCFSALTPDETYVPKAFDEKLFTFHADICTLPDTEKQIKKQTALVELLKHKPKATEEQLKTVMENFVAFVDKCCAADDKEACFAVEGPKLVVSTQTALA

Assays:
[1] = target: TIMP-1 (tissue inhibitor of metalloproteinases 1) (human) (UniProt P01033); test: chemiluminescent immunoassay; settings: DPBS (138 mM NaCl, 2.67 mM KCl, 8.1 mM Na2HPO4, 1.47 mM KH2PO4, 1 mM CaCl2, 0.5 mM MgCl2), pH and temperature not stated, commercial protein, protein details: His, single-stranded DNA
AFP (alpha-fetoprotein) = AFP (alpha-fetoprotein) (UniProt P02771); test: nitrocellulose filter binding; settings: minimal binding; DPBS (138 mM NaCl, 2.67 mM KCl, 8.1 mM Na2HPO4, 1.47 mM KH2PO4, 1 mM CaCl2, 0.5 mM MgCl2); pH and temperature not stated; commercial protein; single-stranded DNA
[2] = target: BSA (bovine serum albumin) (bovine) (UniProt P02769); test: nitrocellulose filter binding; settings: minimal binding; DPBS (138 mM NaCl, 2.67 mM KCl, 8.1 mM Na2HPO4, 1.47 mM KH2PO4, 1 mM CaCl2, 0.5 mM MgCl2); pH and temperature not stated; commercial protein; single-stranded DNA
[3] = target: T1, CEA (carcinoembryonic antigen) (UniProt P06731); test: nitrocellulose filter binding; settings: minimal binding; DPBS (138 mM NaCl, 2.67 mM KCl, 8.1 mM Na2HPO4, 1.47 mM KH2PO4, 1 mM CaCl2, 0.5 mM MgCl2); pH and temperature not stated; commercial protein; single-stranded DNA
T1 sequence (looked up, limits assumed): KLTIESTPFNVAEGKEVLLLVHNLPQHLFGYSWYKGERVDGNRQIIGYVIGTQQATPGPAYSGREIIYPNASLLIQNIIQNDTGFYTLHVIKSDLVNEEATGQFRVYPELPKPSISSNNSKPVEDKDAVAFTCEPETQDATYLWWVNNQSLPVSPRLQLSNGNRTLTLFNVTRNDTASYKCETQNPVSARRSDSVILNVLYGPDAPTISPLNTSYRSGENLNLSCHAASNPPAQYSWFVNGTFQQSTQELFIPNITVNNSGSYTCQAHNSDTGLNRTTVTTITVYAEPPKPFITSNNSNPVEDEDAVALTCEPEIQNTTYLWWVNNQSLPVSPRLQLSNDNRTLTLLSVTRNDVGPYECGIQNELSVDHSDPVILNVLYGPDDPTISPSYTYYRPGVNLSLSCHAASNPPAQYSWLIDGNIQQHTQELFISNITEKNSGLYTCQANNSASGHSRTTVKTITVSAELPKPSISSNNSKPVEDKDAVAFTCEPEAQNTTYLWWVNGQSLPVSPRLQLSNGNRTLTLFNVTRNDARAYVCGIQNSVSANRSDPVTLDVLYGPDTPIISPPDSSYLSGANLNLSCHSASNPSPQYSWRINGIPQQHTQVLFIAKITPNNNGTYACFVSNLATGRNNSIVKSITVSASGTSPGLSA

## TAGCGCCCCAACCCCAGTCGATGAAATTGCGTCGCGGGTGCCTA [Apt-4-2C]
[1]; signal not decreased
  binding result: binds

## GCATAGCGCCCCAACCCCAGTCGATGAAATTGCGTCGCGGGTGCCTATGC [Apt-4-1C]
[1]; signal not decreased
  binding result: binds

## GCGCCCCAACCCCAGTCGATGAAATTGCGTCGCGGGTGC [Apt-4-3C]
[1]; signal not decreased
  binding result: binds

## CACGCATAGCGCCCCAACCCCAGTCGATGAAATTGCGTCGCGGGTGCCTATGCGTG [Apt-4]
AFP (alpha-fetoprotein)
  binding result: binds more weakly
[2]
  binding result: binds more weakly
[3]
  binding result: binds more weakly

## GCCCCAACCCCAGTCGATGAAATTGCGTCGCGGGT [Apt-4-4C]
[1]; decreased signal
  binding result: binds more weakly
